One data set concerns human homomeric α1 GlyRs. The experiment in a line: Whole-cell patch-clamp of glycine induced currents, modulators in the intracellular buffer, HEK293 cells expressing GlyR α1. The data set is classed as cell-based. To be noted: 0.5 μM modulator in intracellular buffer, mean ± SEM. On the procedure:
(§1) HEK293 cells were grown in 10 cm tissue culture Petri dishes in Eagle minimal essential medium (Sigma-Aldrich Chemie GmbH, Munich, Germany) supplemented with 10% FBS (Invitrogen, Karlsruhe, Germany) and penicillin/streptomycin (Sigma-Aldrich Chemie GmbH, Munich, Germany) at 5% CO2 and 37°C in a water saturated atmosphere. For electrophysiological experiments, cells were plated on poly-L lysine treated glass coverslips in 6 cm dishes. Transfection was performed 1 day after cell passage using Gen-Carrier (Epoch Lifesciences, Sugarland, TX, USA): 1.3 μg of receptor DNA, 1.3 μg of green fluorescent protein DNA, and 2.6 μl GenCarrier were used, following the manufacturer’s instructions. Measurements were performed 2–4 days after transfection. HEK293 cells used for protein expression and internalization analysis were transfected using a modified calcium phosphate precipitation method. In brief, a mixture of plasmid DNA, CaCl2 (2.5M), 0.1× TE buffer and 2× HBS (50 mM HEPES, 12 mM glucose, 10 mM KCl, 280 mM NaCl, 1.5 mM Na2HPO4) was applied onto the cells for 6 h. A GlyR α1 to GlyR β ratio of 1:2 was used for co-expression. Transfection medium was replaced by fresh medium after 6 h. Immunocytochemical stainings were always done 24 h after transfection, biotinylation experiments were performed 48 h after transfection.
(§2) using a nonlinear algorithm in Microcal Origin. Here, Iglycine is the current amplitude at a given glycine concentration, Isat is the maximum current amplitude at saturating concentrations of glycine, EC50 is the glycine concentration at half-maximal current responses, and nHill is the Hill coefficient. Currents from each individual cell were normalized to the maximum response at saturating glycine concentrations. Significance of differences between EC50 values were determined using one-way ANOVA with p ≤ 0.05 (*) and p ≤ 0.01 (**) taken as significant. In all experiments, EC50 values were determined for each individual cell from a non-linear fit of dose response data to the logistic equation. An unweighted average ± standard error (SEM) was calculated from all individual EC50 values, without considering the fitting errors.
(§3) For time course analysis, a series of EC50 data was recorded from each cell. The first concentration-response curve, defined as t = 0, was recorded immediately after establishing the whole-cell configuration and positioning the cell in front of the delivery tube. […] Further recordings were made at t = 3 min, t = 6 min and t = 10 min (not attained with all cells). […] Since control EC50 values varied between different days of plating and between batches of cells, measurements with kinase modulators were always compared to control measurements recorded on the same day and from the same batch of cells.
(In general: The patch-clamp technique gives a direct electrical read-out from membranes.)

Data set [1] relates to human heteromeric α1-β GlyRs. The experiment in a line: Whole-cell patch-clamp of glycine induced currents, modulators in the intracellular buffer, HEK293 cells expressing GlyR α1-β. The class given is cell-based. The conditions noted are these: 0.5 μM modulator in intracellular buffer, mean ± SEM. On the procedure: as §1, §2, §3

Among the data in publication PMC5961436, “PKA and PKC Modulators Affect Ion Channel Function and Internalization of Recombinant Alpha1 and Alpha1-Beta Glycine Receptors” (Frontiers in Molecular Neuroscience, 2018) are nH values, retold here.

On to `CCCCCCCCCCCCCC(=O)O[C@@H]1[C@@H](C)[C@@]2(O)[C@@H](C=C(CO)C[C@]3(O)C(=O)C(C)=C[C@@H]23)[C@@H]2C(C)(C)[C@]12OC(C)=O` [PMA, phorbol-12-myristate-13-acetate], for which the nH came to 1.70 ± 0.11 with human homomeric α1 GlyRs and 2.00 ± 0.19 in data set [1].

For the compound `O=S(=O)(NCCNC/C=C/c1ccc(Br)cc1)c1cccc2cnccc12` [H-89], the nH in the data set with human homomeric α1 GlyRs worked out at 2.10 ± 0.27; in data set [1], 2.31 ± 0.21.

Regarding `C=C[C@@]1(C)CC(=O)[C@]2(O)[C@@]3(C)[C@@H](O)CCC(C)(C)[C@@H]3[C@H](O)[C@H](OC(C)=O)[C@@]2(C)O1` [Forskolin], the nH with human homomeric α1 GlyRs turned out to be 2.20 ± 0.26; in data set [1], 1.95 ± 0.14.

`O=C1NCc2c1c1c3ccccc3[nH]c1c1[nH]c3ccccc3c21` [Staurosporine aglycon]: the results for the nH (with human homomeric α1 GlyRs; in data set [1]) were 1.96 ± 0.17 and 1.82 ± 0.12, respectively.
